From the supplement of paper PMC10849652
This is one part of the list. Residues, ends and D or L forms follow the SMILES beside them. *: point of attachment. Cbz = O=C(OCc1ccccc1)*

The chains behind the UniProt entries cited, without tags or fusion partners. Where a name states a change or a piece, a line headed by the entry shows the natural chain unless it says otherwise.
UniProt Q9GZZ9, whole entry, looked up: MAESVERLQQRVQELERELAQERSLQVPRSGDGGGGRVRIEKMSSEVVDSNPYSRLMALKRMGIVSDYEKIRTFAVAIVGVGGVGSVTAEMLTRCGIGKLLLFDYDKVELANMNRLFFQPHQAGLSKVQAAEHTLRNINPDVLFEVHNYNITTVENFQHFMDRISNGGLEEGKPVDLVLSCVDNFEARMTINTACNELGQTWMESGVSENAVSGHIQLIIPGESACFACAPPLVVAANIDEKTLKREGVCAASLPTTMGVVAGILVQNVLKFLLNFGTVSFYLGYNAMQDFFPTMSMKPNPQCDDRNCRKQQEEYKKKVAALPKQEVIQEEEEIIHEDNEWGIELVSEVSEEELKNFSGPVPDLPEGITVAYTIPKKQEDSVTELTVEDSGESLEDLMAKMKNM
UniProt Q5JXB2: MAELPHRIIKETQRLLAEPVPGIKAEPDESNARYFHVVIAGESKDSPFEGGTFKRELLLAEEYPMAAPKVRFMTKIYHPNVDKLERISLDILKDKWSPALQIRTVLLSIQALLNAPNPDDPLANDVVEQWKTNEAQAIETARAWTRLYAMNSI
UniProt Q9UJK0: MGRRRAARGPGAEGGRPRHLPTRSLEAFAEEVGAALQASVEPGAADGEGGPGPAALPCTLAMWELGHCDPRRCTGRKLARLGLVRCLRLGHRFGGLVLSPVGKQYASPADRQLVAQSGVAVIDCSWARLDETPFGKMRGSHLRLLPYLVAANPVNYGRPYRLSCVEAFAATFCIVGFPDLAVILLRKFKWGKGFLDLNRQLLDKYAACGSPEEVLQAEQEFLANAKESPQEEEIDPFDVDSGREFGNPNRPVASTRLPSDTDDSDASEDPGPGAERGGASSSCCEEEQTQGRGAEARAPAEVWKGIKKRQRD
UniProt Q5R3I4: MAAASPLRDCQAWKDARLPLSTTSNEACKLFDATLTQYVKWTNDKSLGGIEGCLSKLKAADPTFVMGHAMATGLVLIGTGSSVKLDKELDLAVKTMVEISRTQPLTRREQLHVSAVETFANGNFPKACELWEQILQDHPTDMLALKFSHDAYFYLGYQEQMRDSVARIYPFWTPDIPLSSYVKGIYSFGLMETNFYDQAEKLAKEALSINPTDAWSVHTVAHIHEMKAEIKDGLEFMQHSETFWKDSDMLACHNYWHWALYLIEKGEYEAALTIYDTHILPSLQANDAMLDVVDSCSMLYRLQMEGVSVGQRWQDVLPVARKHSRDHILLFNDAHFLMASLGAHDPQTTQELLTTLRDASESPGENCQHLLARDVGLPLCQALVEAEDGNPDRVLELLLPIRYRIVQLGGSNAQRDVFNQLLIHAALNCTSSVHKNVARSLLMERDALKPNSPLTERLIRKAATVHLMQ
UniProt P63146, whole entry, looked up: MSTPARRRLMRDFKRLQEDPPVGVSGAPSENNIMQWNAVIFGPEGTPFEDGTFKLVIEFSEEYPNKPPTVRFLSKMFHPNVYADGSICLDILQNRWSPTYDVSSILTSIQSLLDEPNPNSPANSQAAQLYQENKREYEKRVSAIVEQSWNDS
UniProt Q6PKC3: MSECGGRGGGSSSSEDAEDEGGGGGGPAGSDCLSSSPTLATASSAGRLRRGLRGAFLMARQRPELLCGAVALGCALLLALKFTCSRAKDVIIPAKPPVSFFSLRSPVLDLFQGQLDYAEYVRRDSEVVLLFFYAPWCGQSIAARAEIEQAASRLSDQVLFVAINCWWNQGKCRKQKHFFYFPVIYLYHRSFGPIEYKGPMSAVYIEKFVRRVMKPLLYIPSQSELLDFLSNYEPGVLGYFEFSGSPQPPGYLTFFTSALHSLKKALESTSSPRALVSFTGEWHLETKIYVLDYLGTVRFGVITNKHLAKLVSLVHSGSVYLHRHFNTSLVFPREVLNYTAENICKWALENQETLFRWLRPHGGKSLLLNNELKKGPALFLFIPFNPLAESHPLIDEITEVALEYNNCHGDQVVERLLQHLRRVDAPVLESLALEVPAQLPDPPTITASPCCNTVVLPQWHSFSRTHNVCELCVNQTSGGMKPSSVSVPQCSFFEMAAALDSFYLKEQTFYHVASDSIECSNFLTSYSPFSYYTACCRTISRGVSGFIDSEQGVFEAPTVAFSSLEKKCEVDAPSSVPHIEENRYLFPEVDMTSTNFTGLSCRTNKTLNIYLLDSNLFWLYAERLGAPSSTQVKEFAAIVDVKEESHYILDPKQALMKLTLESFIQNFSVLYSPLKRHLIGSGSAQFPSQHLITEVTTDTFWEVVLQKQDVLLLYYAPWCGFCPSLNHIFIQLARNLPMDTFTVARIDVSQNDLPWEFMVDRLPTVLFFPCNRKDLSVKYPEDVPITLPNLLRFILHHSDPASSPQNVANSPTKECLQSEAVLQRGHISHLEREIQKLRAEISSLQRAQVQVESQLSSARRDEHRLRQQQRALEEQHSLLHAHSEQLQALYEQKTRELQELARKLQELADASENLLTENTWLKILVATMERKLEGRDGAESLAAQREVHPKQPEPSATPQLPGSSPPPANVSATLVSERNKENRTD
UniProt Q16763: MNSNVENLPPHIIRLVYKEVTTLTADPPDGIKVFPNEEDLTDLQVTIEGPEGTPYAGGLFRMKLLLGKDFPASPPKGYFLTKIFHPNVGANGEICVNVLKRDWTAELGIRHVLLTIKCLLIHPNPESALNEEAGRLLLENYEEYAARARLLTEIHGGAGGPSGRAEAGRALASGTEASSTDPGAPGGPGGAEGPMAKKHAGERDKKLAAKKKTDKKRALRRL
UniProt P23258, whole entry, looked up: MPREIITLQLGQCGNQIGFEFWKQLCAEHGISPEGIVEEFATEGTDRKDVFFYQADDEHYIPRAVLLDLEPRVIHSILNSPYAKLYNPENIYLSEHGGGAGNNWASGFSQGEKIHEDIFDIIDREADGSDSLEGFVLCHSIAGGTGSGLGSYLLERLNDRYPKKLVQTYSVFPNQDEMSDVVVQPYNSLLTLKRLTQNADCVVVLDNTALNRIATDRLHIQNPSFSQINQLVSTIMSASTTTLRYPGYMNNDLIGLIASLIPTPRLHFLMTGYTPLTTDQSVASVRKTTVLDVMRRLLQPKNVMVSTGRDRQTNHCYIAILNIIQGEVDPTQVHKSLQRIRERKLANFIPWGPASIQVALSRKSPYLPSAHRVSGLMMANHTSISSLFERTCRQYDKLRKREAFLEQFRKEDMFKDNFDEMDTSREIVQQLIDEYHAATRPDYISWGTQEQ
UniProt P68366, whole entry, looked up: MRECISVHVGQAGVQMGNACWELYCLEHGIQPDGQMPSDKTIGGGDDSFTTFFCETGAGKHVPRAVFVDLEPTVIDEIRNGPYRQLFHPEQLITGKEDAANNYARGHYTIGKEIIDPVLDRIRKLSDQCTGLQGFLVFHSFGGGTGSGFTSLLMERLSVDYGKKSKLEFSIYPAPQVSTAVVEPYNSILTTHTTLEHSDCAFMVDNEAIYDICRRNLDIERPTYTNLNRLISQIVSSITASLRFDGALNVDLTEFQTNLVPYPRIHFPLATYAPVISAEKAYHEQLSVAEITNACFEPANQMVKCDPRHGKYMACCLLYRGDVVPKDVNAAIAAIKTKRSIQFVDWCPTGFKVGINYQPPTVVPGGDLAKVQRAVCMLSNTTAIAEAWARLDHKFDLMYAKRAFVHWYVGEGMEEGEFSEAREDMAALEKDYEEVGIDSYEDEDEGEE
UniProt P22314: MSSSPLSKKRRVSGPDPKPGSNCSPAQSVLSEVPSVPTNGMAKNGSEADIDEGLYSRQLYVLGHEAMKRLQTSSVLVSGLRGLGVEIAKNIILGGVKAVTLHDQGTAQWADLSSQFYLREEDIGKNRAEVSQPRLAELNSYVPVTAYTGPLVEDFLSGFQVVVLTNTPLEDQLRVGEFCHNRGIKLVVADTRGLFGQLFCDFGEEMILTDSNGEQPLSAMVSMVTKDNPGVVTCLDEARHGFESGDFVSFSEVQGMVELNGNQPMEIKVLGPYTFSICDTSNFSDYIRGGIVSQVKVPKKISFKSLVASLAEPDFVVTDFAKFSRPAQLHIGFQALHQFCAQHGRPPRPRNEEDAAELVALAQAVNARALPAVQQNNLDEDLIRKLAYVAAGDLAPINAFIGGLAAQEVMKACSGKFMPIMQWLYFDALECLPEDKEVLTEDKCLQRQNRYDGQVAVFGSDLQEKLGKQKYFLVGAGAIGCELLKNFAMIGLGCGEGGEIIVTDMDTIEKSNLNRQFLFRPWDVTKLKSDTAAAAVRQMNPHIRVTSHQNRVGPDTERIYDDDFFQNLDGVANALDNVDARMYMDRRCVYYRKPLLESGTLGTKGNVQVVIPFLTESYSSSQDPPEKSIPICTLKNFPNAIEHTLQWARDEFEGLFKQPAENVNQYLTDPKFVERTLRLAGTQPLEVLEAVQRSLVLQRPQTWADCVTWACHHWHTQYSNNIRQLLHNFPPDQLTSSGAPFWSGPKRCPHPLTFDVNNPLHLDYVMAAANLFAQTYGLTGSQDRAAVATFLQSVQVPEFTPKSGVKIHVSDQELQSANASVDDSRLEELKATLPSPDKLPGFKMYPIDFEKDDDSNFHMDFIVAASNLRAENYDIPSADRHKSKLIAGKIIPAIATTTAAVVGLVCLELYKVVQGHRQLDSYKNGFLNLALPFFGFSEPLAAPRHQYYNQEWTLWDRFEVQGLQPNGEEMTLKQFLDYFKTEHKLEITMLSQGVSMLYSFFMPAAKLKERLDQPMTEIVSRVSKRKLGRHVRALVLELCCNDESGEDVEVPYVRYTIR
UniProt P0CG48, whole entry, looked up: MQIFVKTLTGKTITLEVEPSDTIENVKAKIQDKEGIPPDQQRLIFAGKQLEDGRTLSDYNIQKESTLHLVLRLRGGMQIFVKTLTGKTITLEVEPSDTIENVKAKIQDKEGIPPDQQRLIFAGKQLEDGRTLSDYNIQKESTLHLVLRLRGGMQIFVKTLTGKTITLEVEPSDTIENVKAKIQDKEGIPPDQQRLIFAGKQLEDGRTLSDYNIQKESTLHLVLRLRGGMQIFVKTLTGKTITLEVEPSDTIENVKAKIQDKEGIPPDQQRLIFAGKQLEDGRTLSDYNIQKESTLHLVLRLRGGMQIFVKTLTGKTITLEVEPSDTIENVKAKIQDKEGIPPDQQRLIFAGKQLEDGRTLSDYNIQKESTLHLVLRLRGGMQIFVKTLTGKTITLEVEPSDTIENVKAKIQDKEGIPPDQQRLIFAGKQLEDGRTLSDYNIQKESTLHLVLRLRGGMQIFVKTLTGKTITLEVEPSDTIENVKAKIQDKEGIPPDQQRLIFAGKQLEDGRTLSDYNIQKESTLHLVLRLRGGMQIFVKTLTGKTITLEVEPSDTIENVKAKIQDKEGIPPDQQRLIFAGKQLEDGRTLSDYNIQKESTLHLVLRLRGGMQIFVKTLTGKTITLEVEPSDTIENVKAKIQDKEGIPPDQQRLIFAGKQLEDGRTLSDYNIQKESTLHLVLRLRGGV
UniProt Q969T4: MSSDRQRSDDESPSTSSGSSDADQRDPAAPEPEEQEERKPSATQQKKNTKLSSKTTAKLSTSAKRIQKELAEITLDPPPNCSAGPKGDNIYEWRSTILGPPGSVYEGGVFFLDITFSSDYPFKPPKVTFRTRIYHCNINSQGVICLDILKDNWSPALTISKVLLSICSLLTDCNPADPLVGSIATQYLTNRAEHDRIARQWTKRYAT
UniProt Q9GZX9: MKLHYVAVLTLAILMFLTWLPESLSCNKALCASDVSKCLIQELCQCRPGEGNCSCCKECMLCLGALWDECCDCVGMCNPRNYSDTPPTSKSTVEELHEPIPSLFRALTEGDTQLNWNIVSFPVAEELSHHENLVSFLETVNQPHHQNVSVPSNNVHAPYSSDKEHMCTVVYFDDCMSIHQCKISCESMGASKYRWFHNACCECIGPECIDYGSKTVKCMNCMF
UniProt P04818: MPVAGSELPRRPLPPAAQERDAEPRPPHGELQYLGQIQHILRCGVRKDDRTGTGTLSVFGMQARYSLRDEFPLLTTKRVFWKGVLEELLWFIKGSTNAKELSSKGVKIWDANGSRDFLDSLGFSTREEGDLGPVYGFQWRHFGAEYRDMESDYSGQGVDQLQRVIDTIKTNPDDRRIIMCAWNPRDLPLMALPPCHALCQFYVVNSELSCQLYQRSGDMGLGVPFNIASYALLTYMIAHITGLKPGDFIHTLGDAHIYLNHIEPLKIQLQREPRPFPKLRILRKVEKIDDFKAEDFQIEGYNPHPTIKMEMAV
UniProt Q6NXR4: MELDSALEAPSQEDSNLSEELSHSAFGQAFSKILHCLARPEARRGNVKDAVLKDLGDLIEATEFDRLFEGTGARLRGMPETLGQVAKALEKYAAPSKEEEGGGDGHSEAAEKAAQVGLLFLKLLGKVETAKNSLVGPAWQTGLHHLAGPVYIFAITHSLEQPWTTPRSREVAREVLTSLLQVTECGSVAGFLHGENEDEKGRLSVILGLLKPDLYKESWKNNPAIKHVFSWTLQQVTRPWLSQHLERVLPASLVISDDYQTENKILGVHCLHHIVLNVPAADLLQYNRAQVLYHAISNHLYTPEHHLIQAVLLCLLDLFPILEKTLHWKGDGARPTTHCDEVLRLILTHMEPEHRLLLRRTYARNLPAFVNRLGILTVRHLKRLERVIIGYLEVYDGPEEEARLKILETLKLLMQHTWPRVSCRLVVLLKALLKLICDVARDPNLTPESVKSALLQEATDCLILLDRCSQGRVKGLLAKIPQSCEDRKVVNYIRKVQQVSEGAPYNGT

Legend:
Test in all cases: log2 fold change, soluble protein after heating vs DMSO (PISA); higher = thermal stabilisation; K562 cells, 10 uM, 30 min; active = over 0.2 and 3.5 SD of the protein, either way, in both replicates (recomputed)
[1] = compound: C#Cc1cccc(Nc2ncnc3cc(OCCOC)c(OCCOC)cc23)c1 [erlotinib]
Summary of the method: (§1)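 Values are thermal stability changes relative to control samples and are taken from duplicates. They are stated as log2 fold changes. Before quantification by TMTpro 16plex LC-MS/MS with equalised channel sums, K562 cells at 2×10^6 cells/mL were treated with 10 μM compound for 30 min, heated in aliquots for 3 min across 48°C-58°C, pooled, extracted in PBS with 0.5% NP-40 at 4°C, and centrifuged at 21,000xg for 90 min to give the soluble supernatant.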

[2] = compound: C/C(=N\NC(=O)C1=CC(=CC=C1)S(=O)(=O)N2CCOCC2)/C3=C(C=CC(=C3)Cl)O
Summary of the method: as §1

[3] = compound: C1=CC(=C(C=C1Cl)C2=NC3=NC=CN=C3C(=N2)NC4=CC=NC=C4)F
Summary of the method: as §1

[4] = compound: C1=CC(=CC=C1C2=NC3=C(N2)C=C(C=C3)C(=O)N)OC4=CC=C(C=C4)Cl
Summary of the method: as §1

[5] = compound: C1=CC2=C(C=CC(=C2)/C=C\3/C(=O)NC(=NCC4=CC=CS4)S3)N=C1
Summary of the method: as §1

[6] = compound: C1=CC2=NC=CN=C2C=C1/C=C/3\C(=O)NC(=O)S3
Summary of the method: as §1

[7] = compound: C1=CC=C(C=C1)C2=NC(=C(N2)C3=CC=NC=C3)C4=CC(=C(C=C4)Cl)O
Summary of the method: as §1

[8] = compound: C1=CC=C2C(=C1)C3=NNC4=CC=CC(=C43)C2=O
Summary of the method: as §1

[9] = compound: C1CCN(C1)C(=O)NC2=CC=CC(=C2)NC3=NC=C(C(=N3)NCCC4=CN=CN4)Br
Summary of the method: as §1

[10] = compound: C1CN(CCC1(CC2=CC=C(C=C2)Cl)N)C3=NC=NC4=C3C=CN4
Summary of the method: as §1

[11] = compound: C1COCCN1CCN2C3=CC=CC=C3N=C2NC(=O)C4=CC(=CC=C4)[N+](=O)[O-] [IRAK-1-4 Inhibitor I]
Summary of the method: as §1

[12] = compound: C=CC(=O)N1CCC[C@@H](n2nc(-c3ccc(Oc4ccccc4)cc3)c3c(N)ncnc32)C1 [ibrutinib]
Summary of the method: as §1

[13] = compound: CC(=O)c1cnc2ccc(-c3cc(Cl)c(O)c(Cl)c3)nc2c1N[C@H]1CC[C@H](CN(C)C)CC1
Summary of the method: as §1

[14] = compound: CC(C)(C)Cn1c(N)nc2ccc(-c3[nH]c(C(C)(C)C)nc3-c3ccc(F)cc3)nc21 [ralimetinib]
Summary of the method: as §1

[15] = compound: CC(C)(O)CC(=O)NCCn1ccc2ncnc(Nc3ccc(Oc4cccc(C(F)(F)F)c4)c(Cl)c3)c21
Summary of the method: as §1

[16] = compound: CC(C)C1=C2N=C(C=C(N2N=C1)NCC3=CC=CC=C3)NCCCCCCN
Summary of the method: as §1

[17] = compound: CC(C)C[C@@H](C=O)NC(=O)[C@H](CC(C)C)NC(=O)[C@H](CC(C)C)NC(=O)OCc1ccccc1
Summary of the method: as §1

[18] = compound: CC(C)N(C[C@H]1O[C@@H](n2cnc3c(N)ncnc32)[C@H](O)[C@@H]1O)[C@H]1C[C@@H](CCc2nc3cc(C(C)(C)C)ccc3[nH]2)C1 [pinometostat]
Summary of the method: as §1

[19] = compound: CC1=C(C(CC(=O)N1)C2=CC=C(C=C2)C(F)(F)F)C(=O)NC3=C(C=C4C(=C3)C=NN4)F
Summary of the method: as §1

[20] = compound: CC1=C(C2=C(C=C1)C(=O)C3=CC=CC=C3N2CCCN)C
Summary of the method: as §1

Row | Target | log2 fold change [1] | log2 fold change [2] | log2 fold change [3] | log2 fold change [4] | log2 fold change [5] | log2 fold change [6] | log2 fold change [7] | log2 fold change [8] | log2 fold change [9] | log2 fold change [10] | log2 fold change [11] | log2 fold change [12] | log2 fold change [13] | log2 fold change [14] | log2 fold change [15] | log2 fold change [16] | log2 fold change [17] | log2 fold change [18] | log2 fold change [19] | log2 fold change [20]
1 | UBA5 (UniProt Q9GZZ9) | inactive: 0.018 | inactive: 0.042 | inactive: 0.005 | inactive: 0.008 | inactive: 0.026 | inactive: 0.021 | inactive: 0.041 | inactive: -0.032 | inactive: 0.06 | inactive: -0.016 | inactive: 0.013 | inactive: -0.008 | inactive: -0.077 | inactive: -0.059 | inactive: -0.069 | inactive: -0.023 | inactive: -0.051 | inactive: -0.042 | inactive: -0.02 | inactive: 0.008
2 | UBE2NL (UniProt Q5JXB2) | inactive: 0.013 | inactive: 0.07 | inactive: 0.229 | inactive: -0.027 | inactive: 0.062 | inactive: 0.041 | inactive: 0.002 | inactive: 0.048 | inactive: -0.035 | inactive: -0.019 | inactive: 0 | inactive: -0.017 | inactive: -0.006 | inactive: -0.092 | inactive: 0.005 | inactive: 0.009 | inactive: -0.025 | inactive: -0.012 | inactive: -0.008 | inactive: 0.191
3 | TSR3 (UniProt Q9UJK0) | inactive: -0.047 | inactive: -0.032 | inactive: -0.189 | inactive: 0.061 | inactive: 0.033 | inactive: -0.039 | inactive: -0.053 | inactive: 0.02 | inactive: -0.03 | inactive: -0.044 | inactive: -0.027 | inactive: -0.009 | inactive: -0.057 | inactive: 0.006 | inactive: 0.073 | inactive: 0.01 | inactive: 0.088 | inactive: 0.063 | inactive: 0.019 | inactive: 0.002
4 | TTC38 (UniProt Q5R3I4) | active: 0.749 | inactive: 0.032 | inactive: 0.082 | inactive: 0.072 | inactive: 0.021 | inactive: -0.002 | inactive: 0.035 | inactive: 0.09 | inactive: -0.06 | inactive: 0.025 | inactive: 0.129 | inactive: -0.048 | inactive: 0.023 | inactive: 0.017 | inactive: -0.204 | inactive: -0.06 | inactive: -0.195 | inactive: 0.027 | – | active: 0.801
5 | UBE2B (UniProt P63146) | inactive: 0.004 | inactive: 0.049 | inactive: 0.124 | inactive: 0.121 | inactive: 0.16 | inactive: -0.03 | inactive: 0.037 | inactive: 0.023 | inactive: 0.08 | inactive: -0.027 | inactive: 0.028 | inactive: 0.064 | inactive: 0.005 | inactive: -0.014 | inactive: -0.026 | inactive: -0.082 | inactive: 0.008 | inactive: 0.089 | inactive: -0.069 | inactive: 0.011
6 | TXNDC11 (UniProt Q6PKC3) | inactive: -0.058 | inactive: 0.003 | inactive: -0.06 | inactive: 0.019 | inactive: -0.037 | inactive: -0.005 | inactive: 0.003 | inactive: -0.001 | inactive: -0.026 | inactive: -0.042 | inactive: -0.113 | inactive: -0.024 | inactive: -0.003 | inactive: -0.025 | inactive: 0.036 | inactive: -0.025 | inactive: 0.024 | inactive: -0.066 | – | inactive: -0.002
7 | UBE2S (UniProt Q16763) | inactive: 0.01 | inactive: 0.064 | inactive: -0.025 | inactive: -0.021 | inactive: 0.052 | inactive: 0.014 | inactive: -0.008 | inactive: 0.014 | inactive: -0.02 | inactive: 0.029 | inactive: -0.065 | inactive: -0.035 | inactive: -0.037 | inactive: 0.03 | inactive: -0.034 | inactive: 0.018 | inactive: 0.125 | inactive: -0.05 | – | inactive: -0.055
8 | TUBG1 (UniProt P23258) | inactive: -0.059 | inactive: -0.123 | inactive: -0.037 | inactive: 0.06 | inactive: 0.061 | inactive: -0.008 | inactive: -0.006 | inactive: -0.014 | inactive: -0.015 | inactive: 0.115 | inactive: -0.009 | inactive: 0.02 | inactive: 0.002 | inactive: 0.004 | inactive: 0 | inactive: 0.164 | inactive: 0.05 | inactive: 0.024 | inactive: 0.025 | inactive: 0.051
9 | TUBA4A (UniProt P68366) | inactive: 0.016 | inactive: 0.048 | inactive: 0.048 | inactive: -0.038 | inactive: 0.069 | inactive: -0.04 | inactive: -0.037 | inactive: 0.027 | inactive: -0.015 | inactive: 0.075 | inactive: 0.039 | inactive: 0.01 | inactive: 0.001 | inactive: -0.044 | inactive: -0.032 | inactive: 0 | inactive: 0.016 | inactive: -0.039 | – | inactive: 0.011
10 | TTPAL (UniProt Q9BTX7) | inactive: 0.025 | inactive: 0.011 | inactive: -0.021 | inactive: -0.005 | inactive: 0.017 | inactive: 0.043 | inactive: 0.056 | inactive: 0.005 | inactive: -0.035 | inactive: 0.069 | inactive: -0.023 | inactive: 0.076 | inactive: -0.044 | inactive: -0.102 | inactive: 0.005 | inactive: 0.031 | inactive: -0.015 | inactive: 0.014 | inactive: -0.01 | inactive: 0.072
11 | UBA1 (UniProt P22314) | inactive: 0.1 | inactive: 0.166 | inactive: 0.074 | inactive: -0.024 | inactive: 0.114 | inactive: -0.004 | inactive: 0.065 | inactive: 0.023 | inactive: -0.034 | inactive: -0.175 | inactive: -0.145 | inactive: -0.058 | inactive: -0.047 | inactive: 0.068 | inactive: -0.15 | active: -0.363 | inactive: -0.055 | inactive: 0.019 | – | inactive: 0.336
12 | UBC (UniProt P0CG48) | inactive: -0.007 | inactive: -0.021 | inactive: -0.004 | inactive: 0.011 | inactive: 0.024 | inactive: -0.044 | inactive: -0.054 | inactive: 0.009 | inactive: 0.043 | inactive: -0.041 | inactive: 0.022 | inactive: 0.027 | inactive: 0.033 | inactive: -0.064 | inactive: 0.008 | inactive: 0.167 | active: 0.296 | inactive: 0.042 | – | active: 0.281
13 | UBE2E3 (UniProt Q969T4) | inactive: 0.063 | inactive: 0.112 | inactive: 0.152 | inactive: -0.034 | inactive: 0.083 | inactive: 0.009 | inactive: 0.014 | inactive: 0.045 | inactive: -0.028 | inactive: -0.019 | inactive: 0.106 | inactive: -0.059 | inactive: -0.027 | inactive: 0.069 | inactive: -0.046 | inactive: -0.08 | inactive: -0.039 | inactive: 0.096 | – | inactive: 0.066
14 | TWSG1 (UniProt Q9GZX9) | inactive: 0.135 | inactive: -0.024 | inactive: 0.067 | inactive: 0.017 | inactive: 0.007 | inactive: 0 | inactive: -0.056 | inactive: -0.083 | inactive: 0.007 | inactive: 0.044 | inactive: 0.066 | inactive: 0.026 | inactive: -0.017 | inactive: 0.038 | inactive: -0.025 | inactive: -0.003 | inactive: -0.032 | inactive: 0.014 | inactive: 0.044 | inactive: 0.026
15 | UBA6 | inactive: 0.011 | inactive: 0.099 | inactive: 0.06 | inactive: 0.038 | inactive: 0.014 | inactive: -0.037 | inactive: 0.014 | inactive: 0.015 | inactive: -0.024 | inactive: -0.015 | inactive: -0.038 | inactive: -0.01 | inactive: -0.009 | inactive: -0.002 | inactive: -0.012 | inactive: -0.044 | inactive: -0.025 | inactive: 0.004 | – | inactive: 0.106
16 | TYMS (UniProt P04818) | inactive: 0.023 | inactive: 0.126 | inactive: -0.019 | inactive: 0.025 | inactive: 0.013 | inactive: -0.018 | inactive: 0.045 | inactive: 0.047 | inactive: -0.104 | inactive: 0.016 | inactive: -0.021 | inactive: -0.017 | inactive: -0.031 | inactive: -0.001 | inactive: -0.054 | inactive: -0.033 | inactive: 0.052 | inactive: 0.031 | inactive: 0.005 | inactive: 0.048
17 | TTI2 (UniProt Q6NXR4) | inactive: 0 | inactive: 0.053 | inactive: 0.003 | inactive: -0.035 | inactive: 0.029 | inactive: -0.036 | inactive: -0.095 | inactive: 0.046 | inactive: 0.008 | inactive: -0.028 | inactive: -0.032 | inactive: -0.006 | inactive: 0.005 | inactive: 0.033 | inactive: -0.196 | inactive: -0.079 | inactive: 0.032 | inactive: 0.016 | – | inactive: 0.033

Part of the list above, reduced to log2 fold change [2], log2 fold change [14] and log2 fold change [19].
Row,Target,log2 fold change [2],log2 fold change [14],log2 fold change [19]
14,TWSG1 (UniProt Q9GZX9),inactive: -0.024,inactive: 0.038,inactive: 0.044
15,UBA6,inactive: 0.099,inactive: -0.002,–
